From patent US20250241968A1
Results are given in words; binding and its absence hold for the method and conditions named. In cells and extracts the contact can be indirect. Some binding calls cover weakened binding; strength is not graded here.

Amino acid sequences for entries named in this document (tags omitted). A change or cut given only in a name is not applied to a line headed by its entry. Chains listed by the source or under a name are the forms on record and can include a tag or linker. Residues count along the entry.
UniProt Q8BJU0: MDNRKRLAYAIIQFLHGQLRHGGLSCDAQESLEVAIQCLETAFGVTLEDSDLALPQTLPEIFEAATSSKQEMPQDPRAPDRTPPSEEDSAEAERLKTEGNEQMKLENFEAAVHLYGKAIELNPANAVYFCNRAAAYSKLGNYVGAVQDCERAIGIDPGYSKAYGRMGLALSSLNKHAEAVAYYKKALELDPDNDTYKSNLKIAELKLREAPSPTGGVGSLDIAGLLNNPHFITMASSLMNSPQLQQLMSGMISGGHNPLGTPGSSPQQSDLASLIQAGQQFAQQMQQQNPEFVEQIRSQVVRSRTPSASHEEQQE
wild-type Hspa8 (heat shock 70 kDa protein 8) (P63017, residues 2-646): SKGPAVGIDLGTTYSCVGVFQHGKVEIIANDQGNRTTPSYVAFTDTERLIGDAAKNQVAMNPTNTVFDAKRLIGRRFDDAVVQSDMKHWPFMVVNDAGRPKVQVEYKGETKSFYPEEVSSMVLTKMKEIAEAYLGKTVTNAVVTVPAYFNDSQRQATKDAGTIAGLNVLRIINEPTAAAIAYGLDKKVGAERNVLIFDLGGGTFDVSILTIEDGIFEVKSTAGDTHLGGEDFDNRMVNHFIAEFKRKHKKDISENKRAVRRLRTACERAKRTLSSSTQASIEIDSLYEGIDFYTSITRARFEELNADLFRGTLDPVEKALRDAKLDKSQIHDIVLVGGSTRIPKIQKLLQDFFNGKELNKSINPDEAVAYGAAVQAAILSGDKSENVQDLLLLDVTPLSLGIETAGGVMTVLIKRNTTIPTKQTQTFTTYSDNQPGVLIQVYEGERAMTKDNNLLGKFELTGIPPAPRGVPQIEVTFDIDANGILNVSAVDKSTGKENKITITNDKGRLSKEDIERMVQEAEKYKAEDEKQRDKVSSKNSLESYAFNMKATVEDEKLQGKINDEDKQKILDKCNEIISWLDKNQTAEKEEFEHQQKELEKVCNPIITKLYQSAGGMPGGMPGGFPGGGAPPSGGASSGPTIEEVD
Hspa8^G470R variant (P63017, form named): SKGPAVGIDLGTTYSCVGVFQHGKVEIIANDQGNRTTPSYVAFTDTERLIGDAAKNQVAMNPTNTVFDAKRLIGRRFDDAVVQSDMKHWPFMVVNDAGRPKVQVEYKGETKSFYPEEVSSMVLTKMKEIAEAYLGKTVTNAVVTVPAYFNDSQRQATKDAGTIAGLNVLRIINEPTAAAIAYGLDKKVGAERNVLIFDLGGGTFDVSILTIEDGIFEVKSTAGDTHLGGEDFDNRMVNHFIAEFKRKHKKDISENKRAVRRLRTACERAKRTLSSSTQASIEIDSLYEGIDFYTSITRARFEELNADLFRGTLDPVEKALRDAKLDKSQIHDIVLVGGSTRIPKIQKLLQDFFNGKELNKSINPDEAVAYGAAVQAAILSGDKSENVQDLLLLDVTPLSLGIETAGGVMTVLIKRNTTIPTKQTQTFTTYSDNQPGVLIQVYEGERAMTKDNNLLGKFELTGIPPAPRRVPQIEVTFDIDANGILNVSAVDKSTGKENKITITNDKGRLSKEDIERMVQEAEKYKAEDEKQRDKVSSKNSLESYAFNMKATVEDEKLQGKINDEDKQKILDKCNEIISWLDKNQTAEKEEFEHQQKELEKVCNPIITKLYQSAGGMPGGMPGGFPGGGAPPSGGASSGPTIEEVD

Legend:
[1] = target: SGTA (mouse) (UniProt Q8BJU0); assay: co-immunoprecipitation, as summed up in the discussion
[2] = target: T1, CSPα (mouse) (UniProt P60904); assay: as above
T1 sequence (looked up): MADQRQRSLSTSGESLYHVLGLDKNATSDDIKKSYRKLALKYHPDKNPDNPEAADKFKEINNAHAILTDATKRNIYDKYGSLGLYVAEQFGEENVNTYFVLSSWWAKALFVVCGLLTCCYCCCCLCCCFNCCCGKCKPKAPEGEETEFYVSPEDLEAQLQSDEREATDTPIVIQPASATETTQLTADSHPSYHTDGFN

[3] = target: SGTA (mouse) (UniProt Q8BJU0); assay: co-immunoprecipitation, PND9 mouse brain lysate, western blot
[4] = target: T1, CSPα (mouse); assay: as above
[5] = target: SGTA (mouse) (UniProt Q8BJU0); assay: co-immunoprecipitation, brain lysate of Smn heterozygous control mice, western blot

Row | binding [1] | binding [2] | binding [3] | binding [4] | binding [5] | Substance
1 | binds | binds | binds | binds | – | Hspa8^G470R variant (from UniProt P63017 2-646)
2 | – | – | – | – | binds | wild-type Hspa8 (heat shock 70 kDa protein 8) (from UniProt P63017 2-646)
